Values are raw readings; no control value is given beside them.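 For antimicrobials the highest concentration approximated the MIC. Most other compounds topped out at 500 µM, and known inducer-like compounds reached up to 1 mM. Inocula for deletion strains were tenfold smaller, and any well growing below 10% of the overall median was considered non-growing.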
Test system: Escherichia coli BW25113
Assay: growth (OD600 area under curve, 8 h) (OD600 x h); higher = more growth
Description: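 E. coli BW25113 reporter strains (wild type, ΔmarA, ΔsoxS, Δrob, each carrying one of 8 lux reporter plasmids) were grown in 40 µl LB in 384-well plates at 37°C, 800 rpm, with each compound at 4 two-fold concentrations, in biological duplicates. Growth is the baseline-corrected OD600 area under the curve over 8 h (0-8 h WT, 1-9 h deletion strains).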

CC1(C)S[C@@H]2[C@H](NC(=O)Cc3ccccc3)C(=O)N2[C@H]1C(=O)O [Penicillin G]
growth
Conditions | reporter plasmid: EVC | reporter plasmid: acrABp | reporter plasmid: marRABp | reporter plasmid: micFp | reporter plasmid: ompFp | reporter plasmid: robp | reporter plasmid: soxSp | reporter plasmid: tolCp
0.47 µg/ml, genetic background: wild type | 3.228 | 3.33 | 3.32 | 3.25 | 3.193 | 3.43 | 3.135 | 3.26
0.47 µg/ml, genetic background: ΔmarA | 3.27 | 4.43 | 3.81 | 3.17 | 3.53 | 3.91 | 2.81 | 2.97
0.47 µg/ml, genetic background: Δrob | 2.93 | 3.29 | 3.42 | 3.15 | 2.61 | 2.94 | 2.94 | 3.27
0.47 µg/ml, genetic background: ΔsoxS | 3.38 | 3.09 | 3.37 | 3.027 | 3.21 | 3.36 | 3.27 | 3.21
0.93 µg/ml, genetic background: wild type | 3 | 3.14 | 3.14 | 3.22 | 3.09 | 3.22 | 3.19 | 3.28
0.93 µg/ml, genetic background: ΔmarA | 3.05 | 4.21 | 3.92 | 3.32 | 3.75 | 3.94 | 2.79 | 2.96
0.93 µg/ml, genetic background: Δrob | 3.02 | 2.86 | 3.42 | 3.21 | 2.33 | 2.69 | 2.77 | 3.33
0.93 µg/ml, genetic background: ΔsoxS | 3.29 | 3.176 | 3.1 | 2.97 | 3.15 | 2.94 | 3.12 | 3.27
1.9 µg/ml, genetic background: wild type | 3.124 | 3.47 | 3.56 | 3.16 | 3.47 | 3.62 | 3.12 | 3.17
1.9 µg/ml, genetic background: ΔmarA | 3.39 | 4.46 | 3.98 | 3.07 | 3.73 | 4.19 | 2.99 | 3.12
1.9 µg/ml, genetic background: Δrob | 2.93 | 3.39 | 3.67 | 3.27 | 2.7 | 2.96 | 3.02 | 3.29
1.9 µg/ml, genetic background: ΔsoxS | 3.11 | 3.58 | 3.37 | 2.83 | 3.33 | 3.2 | 3.27 | 3.25
3.7 µg/ml, genetic background: wild type | 3.05 | 2.93 | 3.27 | 3.19 | 2.87 | 2.62 | 2.89 | 3.2
3.7 µg/ml, genetic background: ΔmarA | 3.01 | 4.05 | 3.51 | 3.16 | 3.46 | 3.68 | 2.8 | 2.9
3.7 µg/ml, genetic background: Δrob | 2.87 | 2.89 | 3.21 | 2.85 | 2.12 | 2.65 | 2.64 | 3.22
3.7 µg/ml, genetic background: ΔsoxS | 3.3 | 3.21 | 3.1 | 2.681 | 2.6 | 2.94 | 3.12 | 3.21

CCN1CCN(C(=O)N[C@@H](C(=O)N[C@@H]2C(=O)N3[C@@H]2SC(C)(C)[C@@H]3C(=O)O)c2ccccc2)C(=O)C1=O [Piperacillin]
growth
Conditions | reporter plasmid: EVC | reporter plasmid: acrABp | reporter plasmid: marRABp | reporter plasmid: micFp | reporter plasmid: ompFp | reporter plasmid: robp | reporter plasmid: soxSp | reporter plasmid: tolCp
0.034 µg/ml, genetic background: wild type | 3.234 | 3.26 | 3.39 | 3.16 | 3.35 | 3.51 | 3.15 | 3.269
0.034 µg/ml, genetic background: ΔmarA | 3.18 | 4.24 | 3.83 | 3.46 | 3.83 | 4 | 3.09 | 3.14
0.034 µg/ml, genetic background: Δrob | 3.07 | 2.99 | 3.47 | 3.31 | 2.9 | 2.73 | 2.997 | 3.24
0.034 µg/ml, genetic background: ΔsoxS | 3.36 | 3.47 | 3.32 | 3.04 | 3.15 | 3.45 | 3.28 | 3.39
0.067 µg/ml, genetic background: wild type | 3.126 | 3.22 | 3.36 | 3.15 | 3.3 | 3.457 | 3.06 | 3.28
0.067 µg/ml, genetic background: ΔmarA | 3.1 | 4.28 | 3.99 | 3.36 | 3.85 | 4.13 | 3.11 | 3.13
0.067 µg/ml, genetic background: Δrob | 2.89 | 3.1 | 3.59 | 3.3 | 2.92 | 2.78 | 2.74 | 3.22
0.067 µg/ml, genetic background: ΔsoxS | 3.111 | 3.35 | 3.35 | 2.79 | 3.14 | 3.19 | 3.1 | 3.24
0.13 µg/ml, genetic background: wild type | 3.25 | 3.34 | 3.36 | 3.15 | 3.44 | 3.59 | 3.14 | 3.24
0.13 µg/ml, genetic background: ΔmarA | 3.34 | 4.25 | 3.8 | 3.31 | 3.73 | 4.18 | 3.18 | 3.21
0.13 µg/ml, genetic background: Δrob | 3.34 | 3.33 | 3.72 | 3.38 | 2.96 | 2.73 | 3.026 | 3.43
0.13 µg/ml, genetic background: ΔsoxS | 3.48 | 3.68 | 3.51 | 3.2 | 3.33 | 3.49 | 3.36 | 3.3807
0.27 µg/ml, genetic background: wild type | 3.01 | 3.097 | 3.04 | 2.99 | 2.96 | 2.81 | 2.88 | 3.17
0.27 µg/ml, genetic background: ΔmarA | 3.31 | 3.13 | 3.04 | 3.25 | 2.62 | 3.47 | 3.05 | 3.12
0.27 µg/ml, genetic background: Δrob | 2.98 | 2.81 | 3.35 | 3.01 | 2.003 | 2.29 | 2.82 | 3.21
0.27 µg/ml, genetic background: ΔsoxS | 3.03 | 3.09 | 3.02 | 2.746 | 2.4 | 2.77 | 2.9 | 3.24

COc1ccc(C[C@H](N)C(=O)N[C@H]2[C@@H](O)[C@H](n3cnc4c(N(C)C)ncnc43)O[C@@H]2CO)cc1 [Puromycin]
growth
Conditions | reporter plasmid: EVC | reporter plasmid: acrABp | reporter plasmid: marRABp | reporter plasmid: micFp | reporter plasmid: ompFp | reporter plasmid: robp | reporter plasmid: soxSp | reporter plasmid: tolCp
3.1 µg/ml, genetic background: wild type | 3.05 | 3.32 | 3.29 | 3.21 | 3.01 | 3.237 | 3.17 | 3.19
3.1 µg/ml, genetic background: ΔmarA | 3.12 | 4.03 | 3.47 | 3.27 | 3.5 | 3.74 | 2.97 | 2.73
3.1 µg/ml, genetic background: Δrob | 3.31 | 3.01 | 3.32 | 2.97 | 2.5 | 2.76 | 3.034 | 3.25
3.1 µg/ml, genetic background: ΔsoxS | 3.28 | 3.23 | 3.1 | 3.14 | 3.04 | 3.32 | 2.79 | 3.23
6.1 µg/ml, genetic background: wild type | 2.89 | 3.24 | 3.2 | 3.02 | 2.92 | 2.93 | 2.89 | 3.07
6.1 µg/ml, genetic background: ΔmarA | 2.93 | 3.75 | 3.29 | 3.06 | 3.26 | 3.39 | 2.88 | 2.72
6.1 µg/ml, genetic background: Δrob | 2.95 | 2.44 | 3.19 | 2.86 | 2.4 | 2.55 | 2.88 | 3.18
6.1 µg/ml, genetic background: ΔsoxS | 3.17 | 2.98 | 2.88 | 2.86 | 2.97 | 3.03 | 2.942 | 3.21
12.2 µg/ml, genetic background: wild type | 2.85 | 3.31 | 3.23 | 2.92 | 3.17 | 2.97 | 3.1 | 3.062
12.2 µg/ml, genetic background: ΔmarA | 2.68 | 3.66 | 2.98 | 3.07 | 3.26 | 3.62 | 2.93 | 2.44
12.2 µg/ml, genetic background: Δrob | 2.74 | 2.81 | 3.11 | 2.77 | 2.33 | 2.65 | 3.06 | 3.01
12.2 µg/ml, genetic background: ΔsoxS | 3.17 | 3.072 | 3.05 | 2.74 | 2.87 | 3.28 | 2.93 | 3.13
24.5 µg/ml, genetic background: wild type | 2.22 | 0.641 | 1.6 | 1.34 | 0.339 | 0.646 | 2.53 | 2.2
24.5 µg/ml, genetic background: ΔmarA | 0.52 | -0.12 | -0.0591 | 0.501 | -0.0215 | 0.703 | 2.25 | 0.35
24.5 µg/ml, genetic background: Δrob | 1.54 | 0.266 | 0.359 | 0.694 | -0.0588 | 0.0268 | 2.4 | 1.81
24.5 µg/ml, genetic background: ΔsoxS | 2.21 | 0.181 | 0.0924 | 0.884 | -0.0137 | -0.00984 | 1.06 | 2.31

O=c1c(O)c(-c2ccc(O)c(O)c2)oc2cc(O)cc(O)c12 [Quercetin]
growth
Conditions | reporter plasmid: EVC | reporter plasmid: acrABp | reporter plasmid: marRABp | reporter plasmid: micFp | reporter plasmid: ompFp | reporter plasmid: robp | reporter plasmid: soxSp | reporter plasmid: tolCp
18.9 µg/ml, genetic background: wild type | 3.42 | 3.11 | 3.21 | 3.37 | 2.94 | 2.92 | 3.42 | 3.36
18.9 µg/ml, genetic background: ΔmarA | 3.65 | 3.55 | 3.57 | 3.53 | 3.07 | 3.83 | 3.27 | 3.22
18.9 µg/ml, genetic background: Δrob | 3.44 | 2.73 | 3.41 | 3.27 | 2.62 | 2.92 | 3.26 | 3.42
18.9 µg/ml, genetic background: ΔsoxS | 3.57 | 3.33 | 2.812 | 3.15 | 3.32 | 3.19 | 3.31 | 3.42
37.8 µg/ml, genetic background: wild type | 3.36 | 2.95 | 2.91 | 3.231 | 1.86 | 3.21 | 3.21 | 3.26
37.8 µg/ml, genetic background: ΔmarA | 3.8 | 3.59 | 3.41 | 3.47 | 2.85 | 3.65 | 3.23 | 3.12
37.8 µg/ml, genetic background: Δrob | 3.49 | 2.54 | 2.95 | 3.23 | 2.15 | 2.56 | 3.23 | 3.43
37.8 µg/ml, genetic background: ΔsoxS | 3.71 | 3.12 | 2.8 | 3.25 | 3.2 | 2.6 | 2.89 | 3.477
75.6 µg/ml, genetic background: wild type | 2.94 | 2.52 | 2.72 | 3.13 | 2.62 | 3.17 | 3.1 | 3.026
75.6 µg/ml, genetic background: ΔmarA | 3.29 | 3.74 | 2.9 | 3.08 | 2.83 | 3.55 | 2.81 | 2.79
75.6 µg/ml, genetic background: Δrob | 3.26 | 2.12 | 3.36 | 3.3 | 2.17 | 2.93 | 3.06 | 3.27
75.6 µg/ml, genetic background: ΔsoxS | 3.62 | 3.51 | 2.93 | 3.14 | 3.2 | 3.11 | 2.8 | 3.528
151.1 µg/ml, genetic background: wild type | 2.73 | 2.67 | 2.34 | 2.79 | 2.42 | 2.53 | 2.58 | 2.596
151.1 µg/ml, genetic background: ΔmarA | 3.06 | 2.8 | 2.65 | 2.59 | 2.78 | 3.33 | 2.438 | 2.55
151.1 µg/ml, genetic background: Δrob | 2.9 | 2.43 | 2.26 | 3.21 | 1.77 | 2.26 | 2.84 | 2.84
151.1 µg/ml, genetic background: ΔsoxS | 3.092 | 2.89 | 2.82 | 2.76 | 2.64 | 2.52 | 2.58 | 3.17
